According to publication doi:10.1101/2024.07.09.602822:
No constants are given. Whether binding was seen depends on the method and setting. Binding seen in cells or lysates may run through a third protein. These calls come from enrichment with a bait or labelling near it, and not all partners need be listed.

The chains behind the UniProt entries cited, without tags or fusion partners.
UniProt P67936: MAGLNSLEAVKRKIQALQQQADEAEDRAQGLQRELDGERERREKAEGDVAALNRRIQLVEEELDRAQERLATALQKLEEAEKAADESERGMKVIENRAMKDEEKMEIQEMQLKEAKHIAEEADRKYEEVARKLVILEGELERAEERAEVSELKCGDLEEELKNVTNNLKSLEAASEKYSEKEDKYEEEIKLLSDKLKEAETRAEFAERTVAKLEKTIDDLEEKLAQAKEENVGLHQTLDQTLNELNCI
UniProt P12814: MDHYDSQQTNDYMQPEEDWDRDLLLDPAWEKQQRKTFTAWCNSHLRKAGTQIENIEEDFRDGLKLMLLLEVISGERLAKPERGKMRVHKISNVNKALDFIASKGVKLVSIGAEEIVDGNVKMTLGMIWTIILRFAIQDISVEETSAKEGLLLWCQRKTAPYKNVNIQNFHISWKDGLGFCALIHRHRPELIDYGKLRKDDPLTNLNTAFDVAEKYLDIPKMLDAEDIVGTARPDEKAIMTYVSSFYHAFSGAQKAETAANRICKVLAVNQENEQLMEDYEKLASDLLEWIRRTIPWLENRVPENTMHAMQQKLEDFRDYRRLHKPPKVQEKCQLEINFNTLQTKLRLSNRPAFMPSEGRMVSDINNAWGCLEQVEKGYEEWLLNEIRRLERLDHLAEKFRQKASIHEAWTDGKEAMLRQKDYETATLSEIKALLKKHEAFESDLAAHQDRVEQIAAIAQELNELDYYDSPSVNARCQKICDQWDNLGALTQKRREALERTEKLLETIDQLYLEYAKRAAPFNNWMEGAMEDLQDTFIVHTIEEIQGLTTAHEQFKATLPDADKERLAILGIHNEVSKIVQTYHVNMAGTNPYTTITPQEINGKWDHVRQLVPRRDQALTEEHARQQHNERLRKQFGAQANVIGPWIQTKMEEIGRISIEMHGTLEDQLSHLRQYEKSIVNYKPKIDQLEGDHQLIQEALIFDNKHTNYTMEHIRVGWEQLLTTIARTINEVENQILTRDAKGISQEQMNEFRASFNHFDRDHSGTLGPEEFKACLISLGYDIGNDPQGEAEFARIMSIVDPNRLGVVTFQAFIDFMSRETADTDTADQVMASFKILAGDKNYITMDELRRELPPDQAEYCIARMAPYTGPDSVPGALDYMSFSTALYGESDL
UniProt O00151: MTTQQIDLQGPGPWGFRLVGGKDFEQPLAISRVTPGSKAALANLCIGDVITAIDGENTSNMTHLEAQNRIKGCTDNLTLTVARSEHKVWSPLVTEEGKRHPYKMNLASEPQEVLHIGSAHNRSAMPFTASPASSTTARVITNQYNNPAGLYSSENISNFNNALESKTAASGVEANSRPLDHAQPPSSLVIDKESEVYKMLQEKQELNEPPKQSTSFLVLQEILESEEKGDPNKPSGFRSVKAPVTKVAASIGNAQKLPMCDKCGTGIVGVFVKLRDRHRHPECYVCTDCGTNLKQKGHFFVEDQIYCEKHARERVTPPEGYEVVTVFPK

What was measured:
Experiment in all cases: proximity labelling
[1] = biological target: ArgBP2 fused with TurboID
[2] = biological target: TPM4 fused with TurboID (UniProt P67936)
[3] = biological target: ACTN1 fused with TurboID (UniProt P12814)
[4] = biological target: PDLIM1 fused with TurboID (UniProt O00151)

- binding [1]: binds
- binding [2]: binds
- binding [3]: binds
- binding [4]: binds
B1: PFKM (Phosphofructokinase muscle type) (enzyme, UniProt P08237 1-780)
chain: MTHEEHHAAKTLGIGKAIAVLTSGGDAQGMNAAVRAVVRVGIFTGARVFFVHEGYQGLVDGGDHIKEATWESVSMMLQLGGTVIGSARCKDFREREGRLRAAYNLVKRGITNLCVIGGDGSLTGADTFRSEWSDLLSDLQKAGKITDEEATKSSYLNIVGLVGSIDNDFCGTDMTIGTDSALHRIMEIVDAITTTAQSHQRTFVLEVMGRHCGYLALVTSLSCGADWVFIPECPPDDDWEEHLCRRLSETRTRGSRLNIIIVAEGAIDKNGKPITSEDIKNLVVKRLGYDTRVTVLGHVQRGGTPSAFDRILGSRMGVEAVMALLEGTPDTPACVVSLSGNQAVRLPLMECVQVTKDVTKAMDEKKFDEALKLRGRSFMNNWEVYKLLAHVRPPVSKSGSHTVAVMNVGAPAAGMNAAVRSTVRIGLIQGNRVLVVHDGFEGLAKGQIEEAGWSYVGGWTGQGGSKLGTKRTLPKKSFEQISANITKFNIQGLVIIGGFEAYTGGLELMEGRKQFDELCIPFVVIPATVSNNVPGSDFSVGADTALNTICTTCDRIKQSAAGTKRRVFIIETMGGYCGYLATMAGLAAGADAAYIFEEPFTIRDLQANVEHLVQKMKTTVKRGLVLRNEKCNENYTTDFIFNLYSEEGKGIFDSRKNVLGHMQQGGSPTPFDRNFATKMGAKAMNWMSGKIKESYRNGRIFANTPDSGCVLGMRKRALVFQPVAELKDQTDFEHRIPKEQWWLKLRPILKILAKYEIDLDTSDHAHLEHITRKRSGEAAV
